Laboratory results taken from publication PMC10873199.

Chains of the proteins cited; added tags and fusions are not shown.
UniProt P78395: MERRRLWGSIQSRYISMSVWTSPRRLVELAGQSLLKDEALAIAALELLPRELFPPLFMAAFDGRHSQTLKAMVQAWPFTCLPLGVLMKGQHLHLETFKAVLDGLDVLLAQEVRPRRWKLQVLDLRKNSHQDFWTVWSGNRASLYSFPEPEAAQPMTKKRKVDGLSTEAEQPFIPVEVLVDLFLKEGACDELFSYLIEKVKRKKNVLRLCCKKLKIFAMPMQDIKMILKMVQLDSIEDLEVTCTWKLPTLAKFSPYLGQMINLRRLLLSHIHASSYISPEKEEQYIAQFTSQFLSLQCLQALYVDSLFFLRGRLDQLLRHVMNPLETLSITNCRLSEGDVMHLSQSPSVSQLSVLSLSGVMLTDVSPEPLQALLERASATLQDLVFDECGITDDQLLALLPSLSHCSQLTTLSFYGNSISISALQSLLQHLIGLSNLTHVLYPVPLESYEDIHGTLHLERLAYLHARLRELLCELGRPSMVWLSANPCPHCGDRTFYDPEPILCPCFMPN
UniProt A6NHR9: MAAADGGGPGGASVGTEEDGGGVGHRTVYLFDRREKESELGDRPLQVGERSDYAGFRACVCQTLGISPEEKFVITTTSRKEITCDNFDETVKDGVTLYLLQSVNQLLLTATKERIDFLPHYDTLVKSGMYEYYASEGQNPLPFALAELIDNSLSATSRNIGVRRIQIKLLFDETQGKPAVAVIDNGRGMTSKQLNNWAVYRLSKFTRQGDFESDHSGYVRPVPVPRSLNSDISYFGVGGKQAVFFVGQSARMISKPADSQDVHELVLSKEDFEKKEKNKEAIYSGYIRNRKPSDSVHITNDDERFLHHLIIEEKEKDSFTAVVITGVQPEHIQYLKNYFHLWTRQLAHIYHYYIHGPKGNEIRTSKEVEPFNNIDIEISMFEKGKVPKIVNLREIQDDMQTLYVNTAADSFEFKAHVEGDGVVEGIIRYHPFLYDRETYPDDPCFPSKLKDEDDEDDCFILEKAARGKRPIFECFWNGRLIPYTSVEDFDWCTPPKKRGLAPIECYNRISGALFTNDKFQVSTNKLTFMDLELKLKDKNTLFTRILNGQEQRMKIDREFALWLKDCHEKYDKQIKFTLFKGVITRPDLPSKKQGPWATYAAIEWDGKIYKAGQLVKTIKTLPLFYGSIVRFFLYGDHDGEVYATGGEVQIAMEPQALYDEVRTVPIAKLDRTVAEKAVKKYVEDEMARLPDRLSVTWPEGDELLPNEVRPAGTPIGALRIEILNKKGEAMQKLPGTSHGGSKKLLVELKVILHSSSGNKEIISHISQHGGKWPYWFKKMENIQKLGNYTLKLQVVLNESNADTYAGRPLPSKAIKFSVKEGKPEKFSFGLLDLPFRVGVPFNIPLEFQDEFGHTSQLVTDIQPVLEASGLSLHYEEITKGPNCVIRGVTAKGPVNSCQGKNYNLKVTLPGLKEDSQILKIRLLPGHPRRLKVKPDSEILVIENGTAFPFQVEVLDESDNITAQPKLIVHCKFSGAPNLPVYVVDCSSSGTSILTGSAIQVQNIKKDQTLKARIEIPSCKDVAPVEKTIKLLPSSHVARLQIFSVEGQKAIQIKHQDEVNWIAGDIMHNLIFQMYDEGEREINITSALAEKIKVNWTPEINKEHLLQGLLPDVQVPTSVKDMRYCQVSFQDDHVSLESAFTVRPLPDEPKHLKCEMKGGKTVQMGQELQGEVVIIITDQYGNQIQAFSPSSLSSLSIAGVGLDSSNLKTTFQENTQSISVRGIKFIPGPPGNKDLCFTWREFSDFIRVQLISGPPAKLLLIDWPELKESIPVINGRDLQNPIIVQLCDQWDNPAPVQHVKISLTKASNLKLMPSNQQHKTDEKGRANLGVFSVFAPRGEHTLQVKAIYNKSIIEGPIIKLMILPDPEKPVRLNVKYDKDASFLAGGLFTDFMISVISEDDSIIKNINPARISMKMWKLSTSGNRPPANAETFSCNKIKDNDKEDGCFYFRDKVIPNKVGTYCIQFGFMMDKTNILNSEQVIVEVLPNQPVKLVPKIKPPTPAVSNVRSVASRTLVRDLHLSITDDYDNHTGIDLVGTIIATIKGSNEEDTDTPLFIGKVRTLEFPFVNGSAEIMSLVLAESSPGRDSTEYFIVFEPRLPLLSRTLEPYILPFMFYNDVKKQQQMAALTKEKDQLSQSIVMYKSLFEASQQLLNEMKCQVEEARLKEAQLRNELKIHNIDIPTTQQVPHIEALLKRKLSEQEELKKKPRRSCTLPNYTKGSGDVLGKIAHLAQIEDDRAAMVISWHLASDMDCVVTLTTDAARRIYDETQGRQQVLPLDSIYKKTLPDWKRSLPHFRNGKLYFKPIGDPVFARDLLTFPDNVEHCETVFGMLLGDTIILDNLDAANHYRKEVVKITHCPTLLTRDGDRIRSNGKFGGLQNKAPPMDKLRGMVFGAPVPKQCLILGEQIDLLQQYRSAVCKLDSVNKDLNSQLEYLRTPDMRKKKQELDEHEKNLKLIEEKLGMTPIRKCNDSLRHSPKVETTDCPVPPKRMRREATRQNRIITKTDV
UniProt Q8N3U4: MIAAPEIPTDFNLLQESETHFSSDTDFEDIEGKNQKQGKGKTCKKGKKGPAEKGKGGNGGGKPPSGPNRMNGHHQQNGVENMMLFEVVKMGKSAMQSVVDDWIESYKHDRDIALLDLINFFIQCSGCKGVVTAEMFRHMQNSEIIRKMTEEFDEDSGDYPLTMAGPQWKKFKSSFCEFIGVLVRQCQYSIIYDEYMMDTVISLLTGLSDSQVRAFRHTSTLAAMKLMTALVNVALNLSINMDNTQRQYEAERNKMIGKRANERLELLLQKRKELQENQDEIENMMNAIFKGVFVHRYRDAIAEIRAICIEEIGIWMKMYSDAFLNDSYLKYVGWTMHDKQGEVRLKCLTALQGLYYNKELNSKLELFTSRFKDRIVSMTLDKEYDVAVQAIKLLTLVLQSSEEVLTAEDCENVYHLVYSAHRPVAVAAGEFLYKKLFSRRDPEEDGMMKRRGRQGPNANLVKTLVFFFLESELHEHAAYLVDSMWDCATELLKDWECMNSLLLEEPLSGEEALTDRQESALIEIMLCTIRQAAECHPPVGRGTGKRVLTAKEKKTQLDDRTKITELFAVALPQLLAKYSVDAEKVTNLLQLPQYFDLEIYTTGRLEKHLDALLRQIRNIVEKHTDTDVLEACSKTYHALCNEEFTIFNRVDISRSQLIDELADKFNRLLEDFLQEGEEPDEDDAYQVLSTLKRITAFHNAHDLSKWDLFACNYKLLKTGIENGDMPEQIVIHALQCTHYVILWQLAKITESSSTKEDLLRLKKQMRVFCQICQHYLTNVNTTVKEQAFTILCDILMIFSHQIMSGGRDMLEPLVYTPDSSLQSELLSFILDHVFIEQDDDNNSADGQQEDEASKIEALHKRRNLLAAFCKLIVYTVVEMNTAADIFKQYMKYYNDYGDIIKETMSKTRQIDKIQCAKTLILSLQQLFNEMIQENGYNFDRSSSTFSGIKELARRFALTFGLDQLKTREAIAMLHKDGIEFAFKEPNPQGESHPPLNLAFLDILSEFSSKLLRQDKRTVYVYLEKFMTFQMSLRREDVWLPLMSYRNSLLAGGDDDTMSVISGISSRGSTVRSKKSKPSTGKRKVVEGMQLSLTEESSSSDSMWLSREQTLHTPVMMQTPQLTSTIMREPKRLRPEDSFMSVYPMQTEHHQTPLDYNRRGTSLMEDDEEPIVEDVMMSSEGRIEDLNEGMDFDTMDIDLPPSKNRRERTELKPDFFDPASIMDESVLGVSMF

Assays:
[1] = target: BioID2-tagged PRAME (human) (UniProt P78395); assay: proximity labelling; BioID2-tagged PRAME expressed in Mel290 cells; biotinylation induced with 30 µM biotin over 5 days; pull down and mass spectrometry
[2] = target: T1, SMC1A (human (endogenous in Mel290)) (UniProt Q14683); assay: affinity purification with mass spectrometry; endogenous SMC1A immunoprecipitated (10 µg SMC1a antibody, Protein A Dynabeads) from Mel290 lysate with or without induction of PRAME; mass spectrometry
T1 sequence: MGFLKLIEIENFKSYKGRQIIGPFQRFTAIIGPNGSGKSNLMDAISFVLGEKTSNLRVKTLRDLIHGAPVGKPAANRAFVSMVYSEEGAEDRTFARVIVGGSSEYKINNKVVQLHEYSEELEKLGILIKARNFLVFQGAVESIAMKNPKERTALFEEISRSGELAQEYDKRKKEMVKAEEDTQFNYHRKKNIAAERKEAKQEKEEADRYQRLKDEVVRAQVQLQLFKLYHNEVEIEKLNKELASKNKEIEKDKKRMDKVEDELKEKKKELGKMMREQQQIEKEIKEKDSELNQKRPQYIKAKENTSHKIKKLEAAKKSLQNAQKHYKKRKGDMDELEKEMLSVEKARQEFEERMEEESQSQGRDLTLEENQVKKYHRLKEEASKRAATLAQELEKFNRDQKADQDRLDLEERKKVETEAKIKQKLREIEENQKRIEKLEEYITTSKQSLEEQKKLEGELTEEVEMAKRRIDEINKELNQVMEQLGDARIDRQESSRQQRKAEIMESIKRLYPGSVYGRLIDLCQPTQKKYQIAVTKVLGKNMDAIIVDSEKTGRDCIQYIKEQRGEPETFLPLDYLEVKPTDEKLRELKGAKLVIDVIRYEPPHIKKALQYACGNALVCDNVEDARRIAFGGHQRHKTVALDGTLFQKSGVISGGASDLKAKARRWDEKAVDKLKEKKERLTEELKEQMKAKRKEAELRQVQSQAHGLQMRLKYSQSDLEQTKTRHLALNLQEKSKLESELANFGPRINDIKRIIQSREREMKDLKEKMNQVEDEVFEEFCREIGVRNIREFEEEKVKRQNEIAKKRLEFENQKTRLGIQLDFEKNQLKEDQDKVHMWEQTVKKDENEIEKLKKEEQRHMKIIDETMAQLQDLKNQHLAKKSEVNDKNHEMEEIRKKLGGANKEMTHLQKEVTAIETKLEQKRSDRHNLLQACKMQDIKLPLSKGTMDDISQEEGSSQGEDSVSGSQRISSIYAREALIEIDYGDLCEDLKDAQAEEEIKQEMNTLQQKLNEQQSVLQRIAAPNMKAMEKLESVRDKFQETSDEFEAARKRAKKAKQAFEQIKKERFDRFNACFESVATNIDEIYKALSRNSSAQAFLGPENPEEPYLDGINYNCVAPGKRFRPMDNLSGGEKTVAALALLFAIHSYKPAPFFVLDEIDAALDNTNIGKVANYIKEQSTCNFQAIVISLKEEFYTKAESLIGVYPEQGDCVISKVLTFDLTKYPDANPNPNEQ

binding [1]: binds
Molecule: HUWE1 (from UniProt Q7Z6Z7 1-4374)

binding [1]: binds
Molecule: SMHD1 (from UniProt A6NHR9 1-2005)

binding [2]: binds
Molecule: STAG2 (from UniProt Q8N3U4 1-1231)

binding [1]: binds
B1: NUP107 (protein, UniProt P57740 1-925)
chain: MDRSGFGEISSPVIREAEVTRTARKQSAQKRVLLQASQDENFGNTTPRNQVIPRTPSSFRQPFTPTSRSLLRQPDISCILGTGGKSPRLTQSSGFFGNLSMVTNLDDSNWAAAFSSQRSGLFTNTEPHSITEDVTISAVMLREDDPGEAASMSMFSDFLQSFLKHSSSTVFDLVEEYENICGSQVNILSKIVSRATPGLQKFSKTASMLWLLQQEMVTWRLLASLYRDRIQSALEEESVFAVTAVNASEKTVVEALFQRDSLVRQSQLVVDWLESIAKDEIGEFSDNIEFYAKSVYWENTLHTLKQRQLTSYVGSVRPLVTELDPDAPIRQKMPLDDLDREDEVRLLKYLFTLIRAGMTEEAQRLCKRCGQAWRAATLEGWKLYHDPNVNGGTELEPVEGNPYRRIWKISCWRMAEDELFNRYERAIYAALSGNLKQLLPVCDTWEDTVWAYFRVMVDSLVEQEIQTSVATLDETEELPREYLGANWTLEKVFEELQATDKKRVLEENQEHYHIVQKFLILGDIDGLMDEFSKWLSKSRNNLPGHLLRFMTHLILFFRTLGLQTKEEVSIEVLKTYIQLLIREKHTNLIAFYTCHLPQDLAVAQYALFLESVTEFEQRHHCLELAKEADLDVATITKTVVENIRKKDNGEFSHHDLAPALDTGTTEEDRLKIDVIDWLVFDPAQRAEALKQGNAIMRKFLASKKHEAAKEVFVKIPQDSIAEIYNQCEEQGMESPLPAEDDNAIREHLCIRAYLEAHETFNEWFKHMNSVPQKPALIPQPTFTEKVAHEHKEKKYEMDFGIWKGHLDALTADVKEKMYNVLLFVDGGWMVDVREDAKEDHERTHQMVLLRKLCLPMLCFLLHTILHSTGQYQECLQLADMVSSERHKLYLVFSKEELRKLLQKLRESSLMLLDQGLDPLGYEIQL

No constants are given. Whether binding was seen depends on the method and setting. In cells and extracts the contact can be indirect. These calls come from enrichment with a bait or labelling near it, and not all partners need be listed. Each block holds one molecule with its values, some of them ahead of it.
